Measured values as given in US7582317B2, “Food supplements comprising, as a health component, sargahydroquinoic acid or derivative thereof” (priority 2001, dated 2009).
At least one compound was matched to its structure with a doubt left.

The chains behind the UniProt entries cited, without tags or fusion partners. Residues count along the entry.
UniProt O42275, 24-633: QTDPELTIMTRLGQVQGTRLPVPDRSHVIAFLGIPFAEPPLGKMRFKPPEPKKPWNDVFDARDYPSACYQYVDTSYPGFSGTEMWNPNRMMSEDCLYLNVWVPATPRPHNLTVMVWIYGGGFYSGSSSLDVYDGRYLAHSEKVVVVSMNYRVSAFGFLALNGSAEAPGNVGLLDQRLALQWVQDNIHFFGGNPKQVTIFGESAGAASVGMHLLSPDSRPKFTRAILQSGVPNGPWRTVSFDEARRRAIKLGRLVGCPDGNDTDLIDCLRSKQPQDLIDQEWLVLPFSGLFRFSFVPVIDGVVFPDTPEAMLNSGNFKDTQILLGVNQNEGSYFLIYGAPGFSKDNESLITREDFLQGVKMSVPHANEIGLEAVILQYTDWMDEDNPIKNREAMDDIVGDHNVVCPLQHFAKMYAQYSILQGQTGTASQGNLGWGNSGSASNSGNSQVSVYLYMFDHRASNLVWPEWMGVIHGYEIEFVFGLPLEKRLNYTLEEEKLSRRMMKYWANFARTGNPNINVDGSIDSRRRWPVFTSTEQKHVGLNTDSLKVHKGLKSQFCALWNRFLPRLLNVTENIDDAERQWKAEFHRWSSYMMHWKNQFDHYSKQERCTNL

Biological target: T1, acetyl choline esterase from electric eel (Electrophorus electricus, UniProt O42275)
T1 construct: acetyl choline esterase from electric eel (Sigma type VI-s lyophilised powder); purchased Sigma type VI-s; host or cells: electric eel
Test: Acetylcholine esterase activity, Ellmans method
Format: biochemical
Settings: pH 8, absorbance 410 nm; FIG. 6

CC(C)=CCC/C(=C/CC/C(C)=C/CC/C(C)=C/Cc1cc(O)cc(C)c1O)C(=O)O [SHQA, 12-(2^1,5^1-dihydroxy-3^1-methylphenyl)-6,10 dimethyl-2-(4^1-methyl-3^1-pentenyl)-2E, 6E, 10E dodecatrienoic acid]
inhibition of acetylcholinesterase activity: inhibit acetylcholinesterase activity
